3 molecules from publication doi:10.1101/2023.07.03.547513 can be followed below.

No constants are given. Whether binding was seen depends on the method and setting. Binding seen in cells or lysates may run through a third protein. These calls come from enrichment with a bait or labelling near it, and not all partners need be listed. For part of these data: No binding means not detected with the bait. For part of these data: Tags and fused reporters may be left off the sequences shown.

Assay in all cases: affinity purification with mass spectrometry
For assay [1], the target named is T1, ECT1-FLAG-TFP (A. thaliana) (UniProt Q3MK94).
T1 sequence: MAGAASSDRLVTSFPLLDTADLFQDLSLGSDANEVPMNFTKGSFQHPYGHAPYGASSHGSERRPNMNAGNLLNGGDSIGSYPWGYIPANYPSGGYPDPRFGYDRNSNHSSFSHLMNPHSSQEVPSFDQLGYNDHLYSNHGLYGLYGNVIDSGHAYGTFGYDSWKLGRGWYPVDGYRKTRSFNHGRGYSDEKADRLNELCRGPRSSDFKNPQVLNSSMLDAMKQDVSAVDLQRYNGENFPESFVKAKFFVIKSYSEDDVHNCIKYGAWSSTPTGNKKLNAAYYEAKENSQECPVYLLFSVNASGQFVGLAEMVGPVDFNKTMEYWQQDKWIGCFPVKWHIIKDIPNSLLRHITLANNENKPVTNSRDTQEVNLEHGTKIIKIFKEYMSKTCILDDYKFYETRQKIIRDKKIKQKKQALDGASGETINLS

Assay [2] has as its target T2, ECT2^WT-mCherry (A. thaliana) (UniProt Q9LJE5).
T2 sequence: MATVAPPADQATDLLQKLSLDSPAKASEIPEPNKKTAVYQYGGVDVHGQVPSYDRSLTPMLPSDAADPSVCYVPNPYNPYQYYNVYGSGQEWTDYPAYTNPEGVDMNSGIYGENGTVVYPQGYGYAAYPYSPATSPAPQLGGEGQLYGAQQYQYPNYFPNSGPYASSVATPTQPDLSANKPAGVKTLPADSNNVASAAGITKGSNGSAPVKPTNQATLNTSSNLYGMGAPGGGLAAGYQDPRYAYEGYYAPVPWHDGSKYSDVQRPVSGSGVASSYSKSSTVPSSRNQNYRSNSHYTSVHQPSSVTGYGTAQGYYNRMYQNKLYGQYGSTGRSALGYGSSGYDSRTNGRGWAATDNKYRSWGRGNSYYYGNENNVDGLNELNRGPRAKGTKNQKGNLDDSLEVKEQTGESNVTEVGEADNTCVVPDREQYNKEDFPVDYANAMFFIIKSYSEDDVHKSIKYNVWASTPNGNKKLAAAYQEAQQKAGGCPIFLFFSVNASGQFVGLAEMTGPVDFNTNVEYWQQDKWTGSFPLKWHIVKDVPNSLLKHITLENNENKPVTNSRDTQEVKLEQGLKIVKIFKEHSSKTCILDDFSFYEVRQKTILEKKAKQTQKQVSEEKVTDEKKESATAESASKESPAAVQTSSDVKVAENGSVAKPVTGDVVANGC

Assay [3] addresses ECT2^ΔN3.2.2-mCherry (A. thaliana) (UniProt Q9LJE5).
The next assay deals with T3, ECT3-Venus (A. thaliana) (UniProt F4K1Z0).
T3 sequence: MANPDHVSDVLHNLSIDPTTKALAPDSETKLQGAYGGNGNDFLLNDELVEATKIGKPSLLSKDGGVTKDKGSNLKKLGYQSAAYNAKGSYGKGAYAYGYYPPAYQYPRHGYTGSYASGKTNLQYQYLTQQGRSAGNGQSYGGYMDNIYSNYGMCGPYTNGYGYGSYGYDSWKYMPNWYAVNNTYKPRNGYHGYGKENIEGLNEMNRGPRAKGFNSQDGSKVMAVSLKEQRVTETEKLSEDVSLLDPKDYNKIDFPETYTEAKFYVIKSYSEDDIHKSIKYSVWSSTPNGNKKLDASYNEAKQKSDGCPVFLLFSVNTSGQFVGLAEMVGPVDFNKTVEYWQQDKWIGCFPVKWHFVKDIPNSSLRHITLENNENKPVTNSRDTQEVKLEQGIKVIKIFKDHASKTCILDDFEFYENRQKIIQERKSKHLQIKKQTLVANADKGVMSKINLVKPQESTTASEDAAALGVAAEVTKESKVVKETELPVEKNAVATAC

In a further assay the target is T4, HA-ECT2 (A. thaliana) (UniProt Q9LJE5).
T4 sequence: T2 sequence

B1: poly(A) binding protein PAB4 (protein, UniProt O22173 1-662)
chain: MAQVQAPSSHSPPPPAVVNDGAATASATPGIGVGGGGDGVTHGALCSLYVGDLDFNVTDSQLYDYFTEVCQVVSVRVCRDAATNTSLGYGYVNYSNTDDAEKAMQKLNYSYLNGKMIRITYSSRDSSARRSGVGNLFVKNLDKSVDNKTLHEAFSGCGTIVSCKVATDHMGQSRGYGFVQFDTEDSAKNAIEKLNGKVLNDKQIFVGPFLRKEERESAADKMKFTNVYVKNLSEATTDDELKTTFGQYGSISSAVVMRDGDGKSRCFGFVNFENPEDAARAVEALNGKKFDDKEWYVGKAQKKSERELELSRRYEQGSSDGGNKFDGLNLYVKNLDDTVTDEKLRELFAEFGTITSCKVMRDPSGTSKGSGFVAFSAASEASRVLNEMNGKMVGGKPLYVALAQRKEERRAKLQAQFSQMRPAFIPGVGPRMPIFTGGAPGLGQQIFYGQGPPPIIPHQPGFGYQPQLVPGMRPAFFGGPMMQPGQQGPRPGGRRSGDGPMRHQHQQPMPYMQPQMMPRGRGYRYPSGGRNMPDGPMPGGMVPVAYDMNVMPYSQPMSAGQLATSLANATPAQQRTLLGESLYPLVDQIESEHAAKVTGMLLEMDQTEVLHLLESPEALNAKVSEALDVLRNVNQPSSQGSEGNKSGSPSDLLASLSINDHL
As to B1, the binding result in assay [1] is given as “no binding”; in assay [2], “binds”; in assay [3], “no binding”; with ECT3-Venus (A. thaliana), “binds”; in the assay with HA-ECT2 (A. thaliana), “binds”.

B2: poly(A) binding protein PAB2 (protein, UniProt P42731 1-629)
chain: MAQVQLQGQTPNGSTAAVTSAPATSGGATATQFGNTSLYVGDLDFNVTDSQLFDAFGQMGTVVTVRVCRDLVTRRSLGYGYVNFTNPQDAARAIQELNYIPLYGKPIRVMYSHRDPSVRRSGAGNIFIKNLDESIDHKALHDTFSSFGNIVSCKVAVDSSGQSKGYGFVQYANEESAQKAIEKLNGMLLNDKQVYVGPFLRRQERDSTANKTKFTNVYVKNLAESTTDDDLKNAFGEYGKITSAVVMKDGEGKSKGFGFVNFENADDAARAVESLNGHKFDDKEWYVGRAQKKSERETELRVRYEQNLKEAADKFQSSNLYVKNLDPSISDEKLKEIFSPFGTVTSSKVMRDPNGTSKGSGFVAFATPEEATEAMSQLSGKMIESKPLYVAIAQRKEDRRVRLQAQFSQVRPVAMQPSVGPRMPVYPPGGPGIGQQMFYGQAPPAMIPPQPGYGYQQQLVPGMRPGGGPVPSFFMPMVQPQQQRPGGGRRPGGIQHSQQQNPMMQQQMHPRGRMFRYPQGRGGSGDVPPYDMGNNMPLTIGALASNLSNATPEQQRTMLGEVLYPLVEQVEAESAAKVTGMLLEMDQTEVLHLLESPEALKAKVAEAMDVLRSVAAGGATEQLASLNLS
Turning to B2, the binding result is listed as “no binding” in assay [1]; “binds” in assay [2]; “no binding” in assay [3]; “binds” with ECT3-Venus (A. thaliana); “binds” with HA-ECT2 (A. thaliana).

B3: poly(A) binding protein PAB8 (protein, UniProt Q9FXA2 1-671)
chain: MAQIQHQGQNANGGVAVPGAAAAEAAAAAAGAAAAAAGAAQQGTTSLYVGDLDATVTDSQLFEAFTQAGQVVSVRVCRDMTTRRSLGYGYVNYATPQDASRALNELNFMALNGRAIRVMYSVRDPSLRKSGVGNIFIKNLDKSIDHKALHETFSAFGPILSCKVAVDPSGQSKGYGFVQYDTDEAAQGAIDKLNGMLLNDKQVYVGPFVHKLQRDPSGEKVKFTNVYVKNLSESLSDEELNKVFGEFGVTTSCVIMRDGEGKSKGFGFVNFENSDDAARAVDALNGKTFDDKEWFVGKAQKKSERETELKQKFEQSLKEAADKSQGSNLYVKNLDESVTDDKLREHFAPFGTITSCKVMRDPSGVSRGSGFVAFSTPEEATRAITEMNGKMIVTKPLYVALAQRKEDRKARLQAQFSQMRPVNMPPAVGPRMQMYPPGGPPMGQQLFYGQGPPAMIPQPGFGYQQQLVPGMRPGGSPMPNFFMPMMQQGQQQQQQQQQQQRPGGGRRGALPQPQQPSPMMQQQMHPRGRMYRYPQRDVNTMPGPTQNMLSVPYDVSSGGGVHHRDSPTSQPVPIVALATRLANAAPEQQRTMLGENLYPLVEQLEPESAAKVTGMLLEMDQTEVLHLLESPEALKAKVTEAMDVLRSVAQQQAGGAADQLASLSLGDNIVP
B3: the binding entry is given as “no binding” in assay [1]; “binds” in assay [2]; “no binding” in assay [3]; “binds” with ECT3-Venus (A. thaliana); “binds” in the assay with HA-ECT2 (A. thaliana).
